PubChem BioAssay AID1259259, Sanger Institute – 2017

- Screen: 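Kinome siRNA search for kinases essential alone or combined with trametinib, cetuximab or BYL719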 (primary screen)
- Cell system: SW1463 human colorectal cancer cells
- Knock-down reagent: siRNA pool against human genes
- Challenge: DMSO vehicle, or one anchor drug: BYL719 at 1 µM, cetuximab at 5 µg/ml, or trametinib at 10 nM
- Read-out: 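Viability as fraction of control pool 2 (non-targeting), replicate mean; knock-down robust z-score without any drug; synergy score averaged for each anchor drug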
- Reading the numbers: robust z-score, knock-down alone: higher = more viable cells after knock-down
- Rule for the call: 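Knock-down called essential when its robust z-score without drug falls below -3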
- Meaning of the calls: active = essential: viability loss from knock-down alone; inactive = no change from knock-down alone
This is one part, drawn at random, of 794 reagents tested. 9 of all reagents (1.1%) count as active. 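Calls rest on knock-down alone, not drug synergy; viability values seem capped at 1.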 Further read-outs or replicates are left out here. No sequences are given here. Not given: the amount of reagent, the time to read-out.

FYN (FYN proto-oncogene, Src family tyrosine kinase) showed robust z-score, knock-down alone -0.377; inactive.
After knock-down of PTK7 (protein tyrosine kinase 7 (inactive)), the screen gave robust z-score, knock-down alone -2.5; inactive.
Knock-down of IRAK4 (interleukin 1 receptor associated kinase 4) gave: robust z-score, knock-down alone 1.13; inactive.
TSSK6 (testis specific serine kinase 6) gave robust z-score, knock-down alone -0.483; inactive.
Silencing of PI4K2A (phosphatidylinositol 4-kinase type 2 alpha) came out at: robust z-score, knock-down alone 0.645; inactive.
For HK1 (hexokinase 1) the deposit lists robust z-score, knock-down alone 0.175; inactive.
MAP3K9 (mitogen-activated protein kinase kinase kinase 9) showed robust z-score, knock-down alone 0.274; inactive.
For CDK11B (cyclin dependent kinase 11B), the entry reads robust z-score, knock-down alone 0.667; inactive.
PIP5K1B (phosphatidylinositol-4-phosphate 5-kinase type 1 beta) scored robust z-score, knock-down alone 0.155; inactive.
CLK1 (CDC like kinase 1) showed robust z-score, knock-down alone 1.13; inactive.
With knock-down of DGKH (diacylglycerol kinase eta), the record shows robust z-score, knock-down alone -0.188; inactive.
Knock-down of PLK2 (polo like kinase 2) came out at: robust z-score, knock-down alone 0.151; inactive.
MAST2 (microtubule associated serine/threonine kinase 2) scored robust z-score, knock-down alone 0.222; inactive.
After knock-down of CDK6 (cyclin dependent kinase 6), the record shows robust z-score, knock-down alone -0.938; inactive.
BRDT (bromodomain testis associated) showed robust z-score, knock-down alone 1.13; inactive.
With knock-down of ITK (IL2 inducible T cell kinase), the screen gave robust z-score, knock-down alone 0.179; inactive.
After knock-down of DGKG (diacylglycerol kinase gamma), the record shows robust z-score, knock-down alone 1.13; inactive.
Knock-down of SF3B1 (splicing factor 3b subunit 1) came out at: robust z-score, knock-down alone -0.98; inactive.

A few values from the list.
Under “call”, CDK6 (cyclin dependent kinase 6) has inactive
Under “call”, FYN (FYN proto-oncogene, Src family tyrosine kinase) has inactive

Continued:
After knock-down of NME3 (NME/NM23 nucleoside diphosphate kinase 3) the results were robust z-score, knock-down alone 0.108; inactive.
After knock-down of DCK (deoxycytidine kinase), the record shows robust z-score, knock-down alone -1.19; inactive.
With knock-down of STK4 (serine/threonine kinase 4), the record shows robust z-score, knock-down alone -0.38; inactive.
Against DGKK (diacylglycerol kinase kappa), the entry reads robust z-score, knock-down alone 0.862; inactive.
Depletion of CHEK1 (checkpoint kinase 1) came out at: robust z-score, knock-down alone -4.11; active.
Silencing of MERTK (MER proto-oncogene, tyrosine kinase) came out at: robust z-score, knock-down alone -0.521; inactive.
Depletion of STK38L (serine/threonine kinase 38 like) resulted in: robust z-score, knock-down alone -0.573; inactive.
For TSSK4 (testis specific serine kinase 4), the values are robust z-score, knock-down alone 1.13; inactive.
For CDK19 (cyclin dependent kinase 19) the deposit lists robust z-score, knock-down alone 0.449; inactive.
BRD2 (bromodomain containing 2) showed robust z-score, knock-down alone -0.5; inactive.
Depletion of NF1 (neurofibromin 1) came out at: robust z-score, knock-down alone 0.732; inactive.
MAP3K12 (mitogen-activated protein kinase kinase kinase 12) showed robust z-score, knock-down alone 0.0299; inactive.
After knock-down of CHUK the results were robust z-score, knock-down alone 1.13; inactive.
RFK (riboflavin kinase) gave robust z-score, knock-down alone 0.112; inactive.
Against CERT1 (ceramide transporter 1), the values are robust z-score, knock-down alone 1.13; inactive.
Knock-down of MAPKAPK3 (MAPK activated protein kinase 3) resulted in: robust z-score, knock-down alone -1.24; inactive.
Knock-down of SKAP1 (src kinase associated phosphoprotein 1) resulted in: robust z-score, knock-down alone 1.13; inactive.
With knock-down of GALK1 (galactokinase 1) the results were robust z-score, knock-down alone -2.31; inactive.
